These are yes or no findings as the source states them, for the method shown.
Target: HisDapGalNAcT2 (N-terminally HisDap-tagged soluble human UDP-GalNAc:polypeptide N-acetylgalactosaminyltransferase 2, amino acids 52-571) (human) (UniProt Q10471)
Assay: SEC-MALS; Yarra SEC-2000 column; 100 uL injected at 0.13 mg/mL; running buffer 50 mM Tris, 300 mM NaCl, pH 8.0 (legend of Figure 3: 150 mM NaCl); 0.5 mL/min; both purified

binding: no binding (tested: 0.13 mg/mL)
Substance: HisDapGalNAcT2 (N-terminally HisDap-tagged soluble human UDP-GalNAc:polypeptide N-acetylgalactosaminyltransferase 2, amino acids 52-571) (from UniProt Q10471 52-571) (enzyme)

From article PMC4299809
